# Test results reported in the supplement of paper PMC8728848.
# The other results are listed elsewhere or left out.
# What was measured:
# Experiment in all cases: glycan array binding signal (z-score within array); higher = stronger binding
# Conditions in all cases: glycan notation: IUPAC condensed, linker removed
# [1] = target: Gal(b1-4)GlcNAc(b1-3)Gal(b1-4)GlcNAc(b1-2)[Gal(b1-4)GlcNAc(b1-3)Gal(b1-4)GlcNAc(b1-6)]Man(a1-6)[Gal(b1-4)GlcNAc(b1-3)Gal(b1-4)GlcNAc(b1-2)Man(a1-3)]Man(b1-4)GlcNAc(b1-4)GlcNAc
# How it was run: (§1)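 The Consortium for Functional Glycomics database supplied 3228 glycan arrays, of which those lacking an available protein sequence were dropped. The binding signal, a within-array Z-score, was averaged across arrays of the same protein sequence and across linkers. Negative scores can be read as non-binding.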
# [2] = target: Gal(b1-4)GlcNAc(b1-3)Gal(b1-4)GlcNAc(b1-2)[Gal(b1-4)GlcNAc(b1-3)Gal(b1-4)GlcNAc(b1-6)]Man(a1-6)[Gal(b1-4)GlcNAc(b1-3)Gal(b1-4)GlcNAc(b1-2)Man(a1-3)]Man(b1-4)GlcNAc(b1-4)[Fuc(a1-6)]GlcNAc
# How it was run: as §1
# [3] = target: Gal(b1-4)GlcNAc(b1-3)Gal(b1-4)GlcNAc(b1-3)Gal(b1-4)GlcNAc
# How it was run: as §1
# [4] = target: Gal(b1-4)GlcNAc(b1-3)Gal(b1-4)GlcNAc(b1-3)Gal(b1-4)GlcNAc(b1-2)Man(a1-3)[Gal(b1-4)GlcNAc(b1-3)Gal(b1-4)GlcNAc(b1-3)Gal(b1-4)GlcNAc(b1-2)Man(a1-6)]Man(b1-4)GlcNAc(b1-4)GlcNAc
# How it was run: as §1
# [5] = target: Gal(b1-4)GlcNAc(b1-3)Gal(b1-4)GlcNAc(b1-3)Gal(b1-4)GlcNAc(b1-2)Man(a1-3)[Gal(b1-4)GlcNAc(b1-3)Gal(b1-4)GlcNAc(b1-3)Gal(b1-4)GlcNAc(b1-2)Man(a1-6)]Man(b1-4)GlcNAc(b1-4)[Fuc(a1-6)]GlcNAc
# How it was run: as §1
# [6] = target: Gal(b1-4)GlcNAc(b1-3)Gal(b1-4)GlcNAc(b1-3)Gal(b1-4)GlcNAc(b1-2)[Gal(b1-4)GlcNAc(b1-3)Gal(b1-4)GlcNAc(b1-3)Gal(b1-4)GlcNAc(b1-6)]Man(a1-6)[Gal(b1-4)GlcNAc(b1-3)Gal(b1-4)GlcNAc(b1-3)Gal(b1-4)GlcNAc(b1-2)Man(a1-3)]Man(b1-4)GlcNAc(b1-4)[Fuc(a1-6)]GlcNAc
# How it was run: as §1
# [7] = target: Gal(b1-4)GlcNAc(b1-3)Gal(b1-4)GlcNAc(b1-3)Gal(b1-4)GlcNAc(b1-3)Gal(b1-4)GlcNAc(b1-2)Man(a1-3)[Gal(b1-4)GlcNAc(b1-3)Gal(b1-4)GlcNAc(b1-3)Gal(b1-4)GlcNAc(b1-3)Gal(b1-4)GlcNAc(b1-2)Man(a1-6)]Man(b1-4)GlcNAc(b1-4)GlcNAc
# How it was run: as §1
# [8] = target: Gal(b1-4)GlcNAc(b1-3)Gal(b1-4)GlcNAc(b1-3)Gal(b1-4)GlcNAc(b1-3)Gal(b1-4)GlcNAc(b1-2)Man(a1-3)[Gal(b1-4)GlcNAc(b1-3)Gal(b1-4)GlcNAc(b1-3)Gal(b1-4)GlcNAc(b1-3)Gal(b1-4)GlcNAc(b1-2)Man(a1-6)]Man(b1-4)GlcNAc(b1-4)[Fuc(a1-6)]GlcNAc
# How it was run: as §1
# [9] = target: Gal(b1-4)GlcNAc(b1-3)Gal(b1-4)GlcNAc(b1-3)Gal(b1-4)GlcNAc(b1-3)Gal(b1-4)GlcNAc(b1-2)[Gal(b1-4)GlcNAc(b1-3)Gal(b1-4)GlcNAc(b1-3)Gal(b1-4)GlcNAc(b1-3)Gal(b1-4)GlcNAc(b1-6)]Man(a1-6)[Gal(b1-4)GlcNAc(b1-3)Gal(b1-4)GlcNAc(b1-3)Gal(b1-4)GlcNAc(b1-3)Gal(b1-4)GlcNAc(b1-2)Man(a1-3)]Man(b1-4)GlcNAc(b1-4)[Fuc(a1-6)]GlcNAc
# How it was run: as §1
# [10] = target: Gal(b1-4)GlcNAc(b1-3)Gal(b1-4)GlcNAc(b1-3)Gal(b1-4)GlcNAc(b1-3)Gal(b1-4)GlcNAc(b1-3)Gal(b1-4)GlcNAc(b1-2)Man(a1-3)[Gal(b1-4)GlcNAc(b1-3)Gal(b1-4)GlcNAc(b1-3)Gal(b1-4)GlcNAc(b1-3)Gal(b1-4)GlcNAc(b1-3)Gal(b1-4)GlcNAc(b1-2)Man(a1-6)]Man(b1-4)GlcNAc(b1-4)GlcNAc
# How it was run: as §1
# [11] = target: Gal(b1-4)GlcNAc(b1-3)Gal(b1-4)GlcNAc(b1-3)Gal(b1-4)GlcNAc(b1-3)Gal(b1-4)GlcNAc(b1-3)Gal(b1-4)GlcNAc(b1-2)Man(a1-3)[Gal(b1-4)GlcNAc(b1-3)Gal(b1-4)GlcNAc(b1-3)Gal(b1-4)GlcNAc(b1-3)Gal(b1-4)GlcNAc(b1-3)Gal(b1-4)GlcNAc(b1-2)Man(a1-6)]Man(b1-4)GlcNAc(b1-4)[Fuc(a1-6)]GlcNAc
# How it was run: as §1
# [12] = target: Gal(b1-4)GlcNAc(b1-3)Gal(b1-4)GlcNAc(b1-3)Gal(b1-4)GlcNAc(b1-3)Gal(b1-4)GlcNAc(b1-3)Gal(b1-4)GlcNAc(b1-2)[Gal(b1-4)GlcNAc(b1-3)Gal(b1-4)GlcNAc(b1-3)Gal(b1-4)GlcNAc(b1-3)Gal(b1-4)GlcNAc(b1-3)Gal(b1-4)GlcNAc(b1-6)]Man(a1-6)[Gal(b1-4)GlcNAc(b1-3)Gal(b1-4)GlcNAc(b1-3)Gal(b1-4)GlcNAc(b1-3)Gal(b1-4)GlcNAc(b1-3)Gal(b1-4)GlcNAc(b1-2)Man(a1-3)]Man(b1-4)GlcNAc(b1-4)[Fuc(a1-6)]GlcNAc
# How it was run: as §1
# [13] = target: Gal(b1-4)GlcNAc(b1-3)Gal(b1-4)GlcNAc(b1-3)Gal(b1-4)GlcNAc(b1-3)Gal(b1-4)GlcNAc(b1-3)Gal(b1-4)GlcNAc(b1-3)Gal(b1-4)GlcNAc(b1-2)Man(a1-3)[Gal(b1-4)GlcNAc(b1-3)Gal(b1-4)GlcNAc(b1-3)Gal(b1-4)GlcNAc(b1-3)Gal(b1-4)GlcNAc(b1-3)Gal(b1-4)GlcNAc(b1-3)Gal(b1-4)GlcNAc(b1-2)Man(a1-6)]Man(b1-4)GlcNAc(b1-4)GlcNAc
# How it was run: as §1
# [14] = target: Gal(b1-4)GlcNAc(b1-3)Gal(b1-4)GlcNAc(b1-3)GalNAc
# How it was run: as §1
# [15] = target: Gal(b1-4)GlcNAc(b1-3)Gal(b1-4)GlcNAc(b1-3)[Gal(b1-4)GlcNAc(b1-3)Gal(b1-4)GlcNAc(b1-6)]GalNAc
# How it was run: as §1
# [16] = target: Gal(b1-4)GlcNAc(b1-3)Gal(b1-4)GlcNAc(b1-6)[Gal(b1-3)]GalNAc
# How it was run: as §1
# [17] = target: Gal(b1-4)GlcNAc(b1-3)Gal(b1-4)[Fuc(a1-3)]GlcNAc(b1-3)Gal(b1-4)[Fuc(a1-3)]GlcNAc
# How it was run: as §1
# [18] = target: Gal(b1-4)GlcNAc(b1-3)GalNAc
# How it was run: as §1
# [19] = target: Gal(b1-4)GlcNAc(b1-3)[Fuc(a1-3)GlcNAc(b1-6)]Gal(b1-4)Glc
# How it was run: as §1
# [20] = target: Gal(b1-4)GlcNAc(b1-3)[Gal(b1-4)GlcNAc(b1-6)]Gal(b1-4)GlcNAc
# How it was run: as §1
# [21] = target: Gal(b1-4)GlcNAc(b1-3)[GlcNAc(b1-6)]Gal(b1-4)GlcNAc
# How it was run: as §1
# [22] = target: Gal(b1-4)GlcNAc(b1-6)Gal(b1-4)GlcNAc
# How it was run: as §1
# [23] = target: Gal(b1-4)GlcNAc(b1-6)GalNAc
# How it was run: as §1
# [24] = target: Gal(b1-4)GlcNAc(b1-6)[Gal(b1-3)]GalNAc
# How it was run: as §1
# [25] = target: Gal(b1-4)GlcNAc(b1-6)[Gal(b1-4)GlcNAc(b1-3)]GalNAc
# How it was run: as §1
# Gal(b1-4)GlcNAc6P = target: Gal(b1-4)GlcNAc6P
# How it was run: as §1
# Gal(b1-6)Gal = target: Gal(b1-6)Gal
# How it was run: as §1
# Gal3S(b1-3)GalNAc = target: Gal3S(b1-3)GalNAc
# How it was run: as §1
# Gal3S(b1-3)GlcNAc = target: Gal3S(b1-3)GlcNAc
# How it was run: as §1
# [26] = target: Gal3S(b1-3)[Fuc(a1-4)]GlcNAc
# How it was run: as §1
# Gal3S(b1-4)Glc = target: Gal3S(b1-4)Glc
# How it was run: as §1
# Gal3S(b1-4)Glc6S = target: Gal3S(b1-4)Glc6S
# How it was run: as §1
# Gal3S(b1-4)GlcNAc = target: Gal3S(b1-4)GlcNAc
# How it was run: as §1
# [27] = target: Gal3S(b1-4)[Fuc(a1-3)]Glc6S
# How it was run: as §1
# [28] = target: Gal3S(b1-4)[Fuc(a1-3)]GlcNAc
# How it was run: as §1
# [29] = target: Gal3S(b1-4)[Fuc(a1-3)]GlcNAc6S
# How it was run: as §1
# Gal3S4S(b1-4)GlcNAc = target: Gal3S4S(b1-4)GlcNAc
# How it was run: as §1
# Gal3S6S(b1-4)GlcNAc = target: Gal3S6S(b1-4)GlcNAc
# How it was run: as §1
# Gal3S6S(b1-4)GlcNAc6S = target: Gal3S6S(b1-4)GlcNAc6S
# How it was run: as §1
# Gal4S(b1-4)GlcNAc = target: Gal4S(b1-4)GlcNAc
# How it was run: as §1
# Gal4S6S(b1-4)GlcNAc = target: Gal4S6S(b1-4)GlcNAc
# How it was run: as §1
# Gal6P(b1-4)GlcNAc = target: Gal6P(b1-4)GlcNAc
# How it was run: as §1
# Gal6S(b1-3)GlcNAc = target: Gal6S(b1-3)GlcNAc
# How it was run: as §1
# Gal6S(b1-3)GlcNAc6S = target: Gal6S(b1-3)GlcNAc6S
# How it was run: as §1
# Gal6S(b1-4)Glc = target: Gal6S(b1-4)Glc
# How it was run: as §1
binder,measurement,setting,value
LlpB (Pseudomonas fluorescens) (protein) MGSSHHHHHHSSGLVPRGSHMASSGFRIILFNSANNGTAILPPRNCLVAGQYLESPSKRYKLILEADGNLRLYDNGVPIWVADSSVPYTYVDNRPNTNLVTCFYMQGSAFLVDRVGSRTWATIGDWIDGAADRAYLQVQDDGNVVVVDGVPRWARFGFTPAALPNRGVFYPDHGTGPLPSFPVWSWTF,glycan array binding signal (z-score),[1],1.42
same,glycan array binding signal (z-score),[2],1.14
same,glycan array binding signal (z-score),[3],-0.221
same,glycan array binding signal (z-score),[4],1.15
same,glycan array binding signal (z-score),[5],2.11
same,glycan array binding signal (z-score),[6],-0.2
same,glycan array binding signal (z-score),[7],0.173
same,glycan array binding signal (z-score),[8],0.256
same,glycan array binding signal (z-score),[9],0.773
same,glycan array binding signal (z-score),[10],-0.635
same,glycan array binding signal (z-score),[11],0.04
same,glycan array binding signal (z-score),[12],1.86
same,glycan array binding signal (z-score),[13],-0.541
same,glycan array binding signal (z-score),[14],1.16
same,glycan array binding signal (z-score),[15],2.19
same,glycan array binding signal (z-score),[16],-0.114
same,glycan array binding signal (z-score),[17],-0.988
same,glycan array binding signal (z-score),[18],-0.663
same,glycan array binding signal (z-score),[19],0.466
same,glycan array binding signal (z-score),[20],-1.01
same,glycan array binding signal (z-score),[21],-0.183
same,glycan array binding signal (z-score),[22],1.58
same,glycan array binding signal (z-score),[23],-0.075
same,glycan array binding signal (z-score),[24],0.018
same,glycan array binding signal (z-score),[25],-0.955
same,glycan array binding signal (z-score),Gal(b1-4)GlcNAc6P,0.332
same,glycan array binding signal (z-score),Gal(b1-6)Gal,-0.442
same,glycan array binding signal (z-score),Gal3S(b1-3)GalNAc,0.166
same,glycan array binding signal (z-score),Gal3S(b1-3)GlcNAc,0.098
same,glycan array binding signal (z-score),[26],0.272
same,glycan array binding signal (z-score),Gal3S(b1-4)Glc,0.751
same,glycan array binding signal (z-score),Gal3S(b1-4)Glc6S,0.262
same,glycan array binding signal (z-score),Gal3S(b1-4)GlcNAc,1.46
same,glycan array binding signal (z-score),[27],-0.617
same,glycan array binding signal (z-score),[28],-1.03
same,glycan array binding signal (z-score),[29],-0.616
same,glycan array binding signal (z-score),Gal3S4S(b1-4)GlcNAc,-0.851
same,glycan array binding signal (z-score),Gal3S6S(b1-4)GlcNAc,-0.361
same,glycan array binding signal (z-score),Gal3S6S(b1-4)GlcNAc6S,-0.319
same,glycan array binding signal (z-score),Gal4S(b1-4)GlcNAc,-0.386
same,glycan array binding signal (z-score),Gal4S6S(b1-4)GlcNAc,0.612
same,glycan array binding signal (z-score),Gal6P(b1-4)GlcNAc,-0.315
same,glycan array binding signal (z-score),Gal6S(b1-3)GlcNAc,-0.975
same,glycan array binding signal (z-score),Gal6S(b1-3)GlcNAc6S,-1.7
same,glycan array binding signal (z-score),Gal6S(b1-4)Glc,-1.15

# A portion from further up, for reference:
binder,measurement,setting,value
LlpB (Pseudomonas fluorescens) (protein) MGSSHHHHHHSSGLVPRGSHMASSGFRIILFNSANNGTAILPPRNCLVAGQYLESPSKRYKLILEADGNLRLYDNGVPIWVADSSVPYTYVDNRPNTNLVTCFYMQGSAFLVDRVGSRTWATIGDWIDGAADRAYLQVQDDGNVVVVDGVPRWARFGFTPAALPNRGVFYPDHGTGPLPSFPVWSWTF,glycan array binding signal (z-score),[6],-0.2
same,glycan array binding signal (z-score),[7],0.173
same,glycan array binding signal (z-score),[8],0.256
